Source: publication doi:10.1101/089201
Results are given in words; binding and its absence hold for the method and conditions named. Binding seen in cells or lysates may run through a third protein. These calls come from enrichment with a bait or labelling near it, and not all partners need be listed.

By UniProt entry, the sequences of proteins in these tests, tags left out.
UniProt Q80TZ9, whole entry: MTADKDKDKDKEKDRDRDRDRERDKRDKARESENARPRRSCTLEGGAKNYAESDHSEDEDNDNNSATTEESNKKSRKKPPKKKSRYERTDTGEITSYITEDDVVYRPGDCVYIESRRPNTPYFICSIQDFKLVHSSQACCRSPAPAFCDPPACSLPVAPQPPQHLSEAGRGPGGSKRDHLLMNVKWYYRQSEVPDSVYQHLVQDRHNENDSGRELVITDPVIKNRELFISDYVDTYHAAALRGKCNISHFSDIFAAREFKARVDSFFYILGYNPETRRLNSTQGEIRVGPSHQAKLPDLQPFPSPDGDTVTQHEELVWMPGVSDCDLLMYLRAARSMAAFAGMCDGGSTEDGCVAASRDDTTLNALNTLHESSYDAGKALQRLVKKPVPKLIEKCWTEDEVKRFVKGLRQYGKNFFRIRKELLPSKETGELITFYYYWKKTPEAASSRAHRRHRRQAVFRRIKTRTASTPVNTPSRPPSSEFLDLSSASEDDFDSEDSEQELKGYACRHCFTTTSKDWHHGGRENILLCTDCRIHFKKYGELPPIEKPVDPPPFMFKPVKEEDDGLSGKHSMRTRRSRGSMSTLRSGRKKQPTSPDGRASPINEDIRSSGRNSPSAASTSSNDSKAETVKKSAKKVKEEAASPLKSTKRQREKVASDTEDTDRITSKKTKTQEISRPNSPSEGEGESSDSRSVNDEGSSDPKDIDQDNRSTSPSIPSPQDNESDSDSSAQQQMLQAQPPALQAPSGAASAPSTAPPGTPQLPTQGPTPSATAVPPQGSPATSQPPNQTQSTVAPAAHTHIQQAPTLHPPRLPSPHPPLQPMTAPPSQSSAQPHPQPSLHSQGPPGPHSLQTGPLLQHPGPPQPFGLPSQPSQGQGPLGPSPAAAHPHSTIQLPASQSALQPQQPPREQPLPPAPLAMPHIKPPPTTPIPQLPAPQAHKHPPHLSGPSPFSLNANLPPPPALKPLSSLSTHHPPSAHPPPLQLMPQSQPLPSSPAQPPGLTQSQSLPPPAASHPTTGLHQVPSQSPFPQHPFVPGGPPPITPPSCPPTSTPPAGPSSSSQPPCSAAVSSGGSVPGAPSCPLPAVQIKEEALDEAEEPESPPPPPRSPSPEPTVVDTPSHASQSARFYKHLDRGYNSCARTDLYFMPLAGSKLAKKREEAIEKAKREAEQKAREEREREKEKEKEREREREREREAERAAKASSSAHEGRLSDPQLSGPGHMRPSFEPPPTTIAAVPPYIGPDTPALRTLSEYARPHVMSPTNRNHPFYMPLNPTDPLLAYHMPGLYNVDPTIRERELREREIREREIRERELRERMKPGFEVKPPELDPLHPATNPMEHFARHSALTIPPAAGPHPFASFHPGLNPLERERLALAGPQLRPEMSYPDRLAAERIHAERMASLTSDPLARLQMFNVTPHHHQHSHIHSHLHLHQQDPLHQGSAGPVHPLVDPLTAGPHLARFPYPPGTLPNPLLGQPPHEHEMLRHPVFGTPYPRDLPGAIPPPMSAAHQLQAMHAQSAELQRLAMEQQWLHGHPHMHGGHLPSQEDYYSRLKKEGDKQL

target: Rere-HA (UniProt Q80TZ9); assay: affinity purification with mass spectrometry

binding, binds:
Ehmt2 (from UniProt Q9Z148 1-1263)
Hdac1 (from UniProt O09106 1-482)
Hdac2 (from UniProt P70288 1-488)
